Measured values from PubChem BioAssay AID504444 (National Center for Advancing Translational Sciences (NCATS), 2011).
The whole screen tested about 360,000 compounds, of which about 7,500 (2.1%) were called active. Inconclusive means that the source gave no clear call. Such entries were picked first, then a sample of the others. Calls come from the whole dose curve; as a rule, active = well fitted inhibition curve with a large enough effect; inconclusive = small, poorly fitted or top-dose-only effect, or effect the other way; inactive = flat fitted curve, though single readings scatter. A potency beside an inconclusive call is a rough fit, not a confirmed value.

Experiment: Nrf2 qHTS screen for inhibitors; note: nearly all actives have a fitted effect of over 60% in size
Settings: A549 ARE-Fluc reporter, luciferase luminescence, 18-24 h; activity change, negative = inhibition: at 46 µM (top of the series)
How it was run: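 A549 ARE_Fluc cells (5000/well, 5% FBS OPTI-MEM) pre-incubated 2 h, then treated with compounds 18-24 h at 37C/5% CO2 in concentration-response. CellTiter-Fluor viability read first; BugLite luciferase luminescence after 15 min at room temperature gives Nrf2 activity.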
% is set by controls: 0 for no effect and ±100 for the full control effect; potency is the fitted concentration of half-maximal effect.

Row | SMILES | Potency | activity change, negative = inhibition
1 | CCc1ccc(-c2csc(-c3c[nH]c4ccccc34)n2)cc1 | inconclusive: 4.11 µM [activator, partial curve, poor fit] | –
2 | O=C(Nc1nnc(-c2ccco2)o1)c1ccc(Cl)s1 | inconclusive: 23.1 µM [falling, single point] | –
3 | CCc1ccccc1NC(=O)C(C)n1nc([N+](=O)[O-])c(Br)c1C (centres undefined) | inconclusive: 25.9 µM [falling, single point] | –
4 | CC1Cc2cc(S(=O)(=O)N3CCC(C(=O)N(C)Cc4ccco4)CC3)ccc2N1C(=O)C1CCC1 (centres undefined) | inconclusive: 23.1 µM [falling, partial curve] | –
5 | COc1ccc(C(=O)Cn2c(NCCO)nc3ccccc32)cc1OC | inconclusive: 2.31 µM [falling, partial curve, poor fit] | –
6 | O=[N+]([O-])c1ccc(N2CCN(c3ccc(O)cc3)CC2)cn1 | active: 20.6 µM | –
7 | Cc1ccc(CNc2ccc([N+](=O)[O-])cc2C(N)=O)cc1 | – | inactive: 20.3%
8 | COc1ccc(-c2nc(CCNC(=O)c3cccs3)cs2)cc1 | inconclusive: 29.1 µM [falling, single point] | –
9 | COC(=O)c1c(-c2ccccc2)csc1NC(=O)c1ccco1 | inconclusive: 0.461 µM [activator, full curve, poor fit] | –
10 | COc1cc(OC)c(C(=O)NC2CCCCCC2)cc1OC | inconclusive: 6.51 µM [activator, single point] | –
11 | Cc1csc(NC(=O)/C=C/c2ccc3c(c2)OCO3)n1 | inconclusive: 3.66 µM [activator, partial curve, poor fit] | –
12 | CCOC(=O)c1cc2c(=O)n3ccccc3nc2n(CCCOC)c1=NC(C)=O | inconclusive: 32.6 µM [activator, partial curve, poor fit] | –
13 | COc1cc(SC)ccc1C(=O)NCCOc1c(C)cc(C)cc1C | – | inactive: 2.67%
14 | Cc1ccc(C)c(Nc2ncnc(N)c2[N+](=O)[O-])c1 | – | inactive: -24.3%
15 | CCc1nc(CN2CCN(c3ccc(C(F)(F)F)cn3)CC2)c(C)[nH]1 | inconclusive: 9.2 µM [falling, partial curve, poor fit] | –
16 | CCOc1ccc(CNC(=O)CCCn2nc(C)c3sc4ccccc4c3c2=O)cc1 | inconclusive: 16.4 µM [activator, single point] | –
17 | Cc1cccc(C)c1OC(=O)CSc1nnc(-c2ccccc2)o1 | – | inactive: -3.7%
18 | CC(C)(CNC(=O)c1sc2cc(Cl)ccc2c1Cl)N1CCOCC1 | inconclusive: 23.1 µM [falling, single point] | –
19 | Clc1ccc(-c2cnn3c(-c4ccncc4)ccnc23)cc1 | inconclusive: 2.06 µM [activator, full curve] | –

A few values from the results shown:
Potency, COc1cc(OC)c(C(=O)NC2CCCCCC2)cc1OC reads inconclusive: 6.51 µM [activator, single point]
activity change, negative = inhibition, Cc1ccc(C)c(Nc2ncnc(N)c2[N+](=O)[O-])c1 reads inactive: -24.3%
